The whole screen tested about 140,000 compounds, of which about 4,300 (3.1%) were called active. The inconclusive results got no clear call from the source; some entries with a clear call stand among them for comparison.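 How the source made its calls: active means readout at or below -70, meaning at least 70% loss of cells showing the perinucleolar compartment, a nuclear body marking cancer cells; inconclusive means readout between -30 and a set limit; inactive means the rest.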
Assay: High Content Assay for Compounds that inhibit the Assembly of the Perinucleolar Compartment;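 further: plate controls were DMSO wells for no effect and camptothecin positive control wells for full effect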
Conditions: PC3M PTB-GFP, PNC prevalence imaging, 16 h; at 10 µM; hits give low values
In short: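 Read-out is percentage of cells bearing a perinucleolar compartment, from automated 20x imaging of fixed, Hoechst-stained PC3M PTB-GFP cells. Cells were seeded 4 h, then exposed 16 h to compound (23 nl of library stock) in duplicate plates.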

Structure (SMILES) | activity change (PNC), negative = inhibition
Cc1cc(C(C)(C)C)ccc1OCCN(C)C | inconclusive: -38.9%
O=C(NCc1ccc(F)cc1)C(c1ccncc1)N(C(=O)c1csnn1)C1CC1 (stereo not drawn) | inconclusive: -56.2%
CNS(=O)(=O)c1cc(NC(C)=O)c(C)cc1C | inconclusive: -30.5%
O=C(Nc1nc(-c2cccs2)cs1)c1ccc(Cl)cc1 | inconclusive: -52%
O=C(Nc1ccc(Cl)cc1)C1=Cc2ccccc2OC1 | inactive: -23.9%
O=C(NCCCN=C1NS(=O)(=O)c2ccccc21)c1ccc(S(=O)(=O)N2CCCCC2)cc1 | inconclusive: -32.8%
CC(C)C(=O)c1cn(CC(=O)NCC2CCCO2)c2ccccc12 (stereo not drawn) | inactive: 27.1%
Cc1ccc(/C=N\NC(=O)c2cc(OCC(F)(F)F)ccc2OCC(F)(F)F)cc1 | inconclusive: -44.9%
O=C(CN1C(=O)c2cccc3cccc1c23)N1CCc2ccccc2C1 | inconclusive: -38.6%
COC(=O)c1c(NC(=O)CN(c2ccccc2)S(C)(=O)=O)sc2c1CCCC2 | inconclusive: -32.2%
CC1CC(=O)N(CC(=O)N2CCCC2)c2ccccc2S1 (stereo not drawn) | inactive: -22%
CCN(CC)c1nc(C(N)=O)cc(-c2ccccc2)n1 | inconclusive: -58.9%
COc1cc(Cl)c(C)cc1NC(=O)[C@@H]1CCCN1C(=O)c1cccs1 | inconclusive: -37.8%
Clc1ccc(CN2CCCCCCC2)cc1Cl | inconclusive: -31.4%
Nc1nc(SCC(=O)OCc2ccccc2)[nH]c(=O)c1NC(=O)c1ccco1 | inconclusive: -46.5%
Cc1ccc(NC(=O)c2ccccc2NS(=O)(=O)c2ccc(Cl)s2)cc1S(=O)(=O)N1CCOCC1 | inconclusive: -64.5%
C=CCn1c(SCC(=O)c2ccc(O)c(O)c2)nnc1-c1ccccc1OC | inactive: -3.24%
Fc1cnc(N2CCOCC2)nc1N1CCc2ccccc21 | inconclusive: -31.2%
COc1ccc(CCNC(=O)c2ccc3c(=O)n(Cc4ccco4)c(=S)[nH]c3c2)cc1OC | inconclusive: -51.5%
CC(OC(=O)c1c2c(nc3ccccc13)/C(=C\c1ccc3c(c1)OCO3)CCC2)C(=O)Nc1ccc(S(N)(=O)=O)cc1 (stereo not drawn) | inactive: 16%
CCc1ccc(NC(=O)COC(=O)c2ccc(Cl)c(S(=O)(=O)N3CCCCCC3)c2)cc1 | inactive: 13%
COc1ccc(OC2C(=O)N(Cc3ccc4c(c3)OCO4)C2c2sccc2C)cc1 (stereo not drawn) | inconclusive: -37.7%

Structure (SMILES) | activity change (PNC), negative = inhibition
CCCCc1nn(-c2cc(Cl)ccc2OC)c2c1C(=O)CC(C)(C)C2 | inconclusive: -47.4%
CC(C)c1nc(SCC(=O)N2CCN(c3ccccc3)CC2)c2c(=O)n(C)c(=O)n(C)c2n1 | inconclusive: -46.3%
O=C(O)c1ccc(CS(=O)(=O)Cc2ccccc2F)o1 | inactive: 1.27%
Cc1ccc(S(=O)(=O)Nc2cccc3ncccc23)s1 | inconclusive: -32.7%
N#Cc1nc(-c2ccc(Cl)cc2)oc1NCc1ccco1 | inconclusive: -32.1%
COC(=O)c1ccccc1NC=C1C(=O)OC2(CCCCC2)OC1=O | inconclusive: -52%
COc1ccc(C(=O)COC(=O)CNC(=O)c2cc(OC)cc(OC)c2)cc1 | inconclusive: -48.1%
Cc1cc2cc(CCNC(=O)c3c(-c4ccccc4Cl)noc3C)c(=O)[nH]c2cc1C | inconclusive: -65.6%
Nc1c(C(=O)OCC2CCCO2)c2nc3ccccc3nc2n1C1CCCCC1 (stereo not drawn) | inconclusive: -63.9%
O=C(c1cc(N2C(=O)C3C4CCC(C4)C3C2=O)ccc1Cl)N1CCN(c2ccccc2F)CC1 (stereo not drawn) | active: -119%
Cc1ccccc1NC(=O)c1cc(S(=O)(=O)N2CCCCC2)cs1 | inactive: -6.06%
O=C(CSc1nnc(SCc2ccccc2)s1)NNC(=S)Nc1ccccc1 | inconclusive: -35%
Cc1ccc(C)c(-n2c(C)cc(/C=N/NC(=O)c3c(C)nc4cc(C)ccn34)c2C)c1 | inactive: -27.6%
S=C(Nc1ccc(Oc2ccccc2)cc1)NC1CCCC1 | inconclusive: -37.6%
COC(=O)CN1C(=S)N(Cc2ccccc2)C(=O)C1CC(=O)Nc1ccc(Br)cc1 (stereo not drawn) | inactive: 67.4%
CCCCn1c(=O)n(C)c(=O)c2c(C(F)(F)F)cc(-c3ccncc3)nc21 | inconclusive: -36.4%
COc1cc2c(cc1NC(=O)CN(C)Cc1ccc(OC)c(OC)c1)oc1ccccc12 | inactive: -26.4%
CCc1cc(=O)oc2cc(OCC(=O)N3CCc4ccccc43)ccc12 | inconclusive: -59.1%
CCc1c(C(=O)Nc2ccccc2)c(C)[nH]c(=S)c1C#N | inactive: -3.46%
Cn1cccc1-c1nc2ccc(NC(=O)c3cccs3)cc2[nH]1 | inconclusive: -59.7%
CCCC(=O)C1=C(c2ccccc2)C(C#N)(C#N)C(C#N)=C1N | inactive: 0.693%
CCOC(=O)c1cccc(NC(=O)c2ccco2)c1 | inconclusive: -54.5%

Structure (SMILES) | activity change (PNC), negative = inhibition
C=COCCn1c(=N)n(CCC)c2ccccc21 | inconclusive: -40.4%
Cc1cc(NS(=O)(=O)c2ccc(NC(=O)Nc3cccc(Cl)c3)cc2)no1 | inconclusive: -33.3%
O=C(Nc1nc2ccc3ccccc3c2s1)c1ccc(N2CCCCC2)c([N+](=O)[O-])c1 | inconclusive: -37.7%
COc1ccc(Cl)cc1N1CC(c2nc3ccccc3[nH]2)CC1=O (stereo not drawn) | inconclusive: -38.3%
Cc1nn2c(nc(N3CCCCC3)c3ccccc32)c1C=O | inconclusive: -60.2%
Cc1cccc(NC(=S)Nc2ccccn2)c1C | inconclusive: -52.8%
O=C1C2CCCN2C(c2ccc(F)cc2)N1c1ccc(Cl)cc1 (stereo not drawn) | active: -98.4%
Fc1ccc(Cn2nnnc2CN2CCN(C3CCCC3)CC2)cc1 | inactive: 24.5%
O=C(Nc1ccc(S(=O)(=O)N2CCCC2)cc1)C1COc2ccccc2O1 (stereo not drawn) | active: -90.4%
S=c1[nH]nc(-c2ccc(Cl)cc2)n1-c1ccc2c(c1)OCCO2 | inactive: -15.2%
CCOc1ccc(Nc2oc(-c3ccco3)nc2C#N)cc1 | inconclusive: -37.3%
Cc1ccc(C(=O)NN2C(=O)CSC2=S)cc1 | active: -84.3%
O=C(CNC(=S)NC(=O)c1cccs1)c1ccccc1 | inconclusive: -33.5%
Cc1ccc2c(C)c(C(=O)N(Cc3cccs3)C3CCS(=O)(=O)C3)oc2c1 (stereo not drawn) | inconclusive: -35.8%
CCOC(=O)C1=NN(c2ccccc2)C(c2ccccc2)CC1=O (stereo not drawn) | inconclusive: -33.1%
O=S(=O)(NCCO)c1cccc2cccnc12 | inconclusive: -31.6%
COc1cc2c(C(=O)NCc3ccc(C)o3)cn(CC(C)C)c(=O)c2cc1OC | active: -108%
Cc1cc(C)nc(NS(=O)(=O)c2ccc(NC(=O)c3ccc(N4C(=O)CCC4=O)cc3)cc2)n1 | active: -102%
CN(C)S(=O)(=O)c1cccc(NC(=O)COC(=O)c2ccc([N+](=O)[O-])o2)c1 | inactive: 61.4%
O=C(NCSc1ccnc(SCNC(=O)c2ccccc2)n1)c1ccccc1 | inconclusive: -32.6%
COc1ccc(CNC(=O)c2cnccn2)cc1 | inactive: 2.51%
COc1ccc2c(c1)CCc1c(C(=O)Nc3c(C)n(C)n(-c4ccccc4)c3=O)noc1-2 | inconclusive: -38.6%

Structure (SMILES) | activity change (PNC), negative = inhibition
Cc1ccc(N2C(=O)/C(=C\c3ccc(C(C)C)cc3)N=C2SC2CCOC2=O)cc1 (stereo not drawn) | inconclusive: -59.7%
CC1(C)CC(=O)C2=C(C1)OC(N)=C(C#N)C21CCN(C(=O)OCc2ccccc2)CC1 | inactive: 18.5%
Cc1ccc(S(=O)(=O)N2CCC(C(=O)N/N=C/c3cccnc3)CC2)cc1 | inconclusive: -73%
Cc1ccc(-c2csc(C3C(N)=NC(S)=C(C#N)C34CCCCC4)n2)cc1 (stereo not drawn) | inconclusive: -37.1%
Cn1c(SCC(=O)N/N=C/C=C/c2ccco2)nc2ccccc21 | inconclusive: -31.7%
O=C(CNc1ccc(Br)cc1)NNC1=NCCC1 | active: -113%
CCn1ncc(Br)c1C(=O)N(C)C12CC3CC(CC(C3)C1)C2 | inconclusive: -39.3%
N#Cc1ccccc1NC(=O)CNc1ccccc1N1CCCCC1 | inactive: 11.5%
C=CCn1c(CCC(=O)Nc2ccc(C)c(Cl)c2)nnc1SCC(=O)Nc1ccccc1C | inactive: 24.5%
CCC1CCCCN1Cc1nc2c(c(=O)n(C)c(=O)n2C)n1Cc1cccc2ccccc12 (stereo not drawn) | inconclusive: -64.1%
CCOc1cc(-c2noc(N)c2C#N)cc(OCC)c1OCC | inactive: 36.2%
COc1ccccc1OCCCn1cc(C#N)c2ccccc21 | active: -82.2%
Brc1ccc(-c2nnc(-c3ccc4c(c3)OCO4)o2)o1 | inconclusive: -66.1%
c1ccc2c(c1)nnn2Cc1nnc2sc(-c3ccc4c(c3)OCCO4)nn12 | inactive: 19.5%
Cc1ccccc1-n1c(=O)cc(NCc2ccc3c(c2)OCO3)[nH]c1=O | inactive: 44.8%
C=CCNC(=O)CN(c1cccc(Br)c1)S(C)(=O)=O | inconclusive: -75.9%
Cn1c2ccccc2c2c(C(=O)N3CCN(c4ccccn4)CC3)cn(C3CCCC3)c(=O)c21 | inconclusive: -76.1%
CCc1ccc(NC(=O)CO/N=C(\C)c2cc3ccccc3o2)cc1 | inconclusive: -33%
OCCNc1nc(-c2cccnc2)nc2ccccc12 | inconclusive: -35.4%
CC1(C)CC(=O)C(N=Nc2cc(Cl)c(Cl)c(Cl)c2)=C(O)C1 | inactive: 17.7%
O=C(NCc1ccco1)C1CCCN(S(=O)(=O)c2ccc(-n3cnnn3)cc2)C1 (stereo not drawn) | inactive: 8.79%
CCOC(=O)c1c(-c2ccc(OC)cc2)csc1NC(=O)CCN1C(=O)c2ccccc2C1=O | inconclusive: -45.6%

4 entries from above in a different format:
Structure (SMILES),"activity change (PNC), negative = inhibition"
CC(OC(=O)c1c2c(nc3ccccc13)/C(=C\c1ccc3c(c1)OCO3)CCC2)C(=O)Nc1ccc(S(N)(=O)=O)cc1 (stereo not drawn),inactive: 16%
O=C(O)c1ccc(CS(=O)(=O)Cc2ccccc2F)o1,inactive: 1.27%
COC(=O)c1ccccc1NC=C1C(=O)OC2(CCCCC2)OC1=O,inconclusive: -52%
CCOc1ccc(Nc2oc(-c3ccco3)nc2C#N)cc1,inconclusive: -37.3%

— PubChem BioAssay AID2417 (National Center for Advancing Translational Sciences (NCATS), 2010)
